Consider 1 substance from paper PMC10484939.

By UniProt entry, the sequences of proteins in these tests, tags left out.
UniProt P09874: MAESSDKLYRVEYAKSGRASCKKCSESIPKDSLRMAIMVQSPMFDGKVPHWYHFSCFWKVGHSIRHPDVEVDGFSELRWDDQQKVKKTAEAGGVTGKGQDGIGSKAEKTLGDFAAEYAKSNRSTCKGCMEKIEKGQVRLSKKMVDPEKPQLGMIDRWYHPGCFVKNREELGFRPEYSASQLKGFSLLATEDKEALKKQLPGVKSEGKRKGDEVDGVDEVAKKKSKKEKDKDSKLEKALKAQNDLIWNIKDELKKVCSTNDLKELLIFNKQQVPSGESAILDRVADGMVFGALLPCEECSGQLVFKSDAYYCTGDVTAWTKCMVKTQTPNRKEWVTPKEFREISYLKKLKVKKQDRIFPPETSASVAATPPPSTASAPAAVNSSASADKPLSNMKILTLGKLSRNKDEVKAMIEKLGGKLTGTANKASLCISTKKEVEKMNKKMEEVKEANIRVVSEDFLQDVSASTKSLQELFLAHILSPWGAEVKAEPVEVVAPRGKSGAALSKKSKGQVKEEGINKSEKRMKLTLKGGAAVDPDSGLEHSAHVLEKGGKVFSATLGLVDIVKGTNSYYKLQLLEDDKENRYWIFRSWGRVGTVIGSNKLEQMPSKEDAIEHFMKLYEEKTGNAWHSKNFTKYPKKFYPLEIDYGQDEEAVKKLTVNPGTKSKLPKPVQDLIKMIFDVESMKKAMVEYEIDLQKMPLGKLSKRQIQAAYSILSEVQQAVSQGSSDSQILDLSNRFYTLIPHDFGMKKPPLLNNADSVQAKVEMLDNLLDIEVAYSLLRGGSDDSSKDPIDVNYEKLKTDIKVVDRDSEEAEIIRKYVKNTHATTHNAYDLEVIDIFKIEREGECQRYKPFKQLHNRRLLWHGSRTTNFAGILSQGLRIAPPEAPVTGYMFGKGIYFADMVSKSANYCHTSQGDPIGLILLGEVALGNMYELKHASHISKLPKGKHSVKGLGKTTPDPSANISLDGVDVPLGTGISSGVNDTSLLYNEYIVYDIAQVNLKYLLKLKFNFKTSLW
UniProt P54098: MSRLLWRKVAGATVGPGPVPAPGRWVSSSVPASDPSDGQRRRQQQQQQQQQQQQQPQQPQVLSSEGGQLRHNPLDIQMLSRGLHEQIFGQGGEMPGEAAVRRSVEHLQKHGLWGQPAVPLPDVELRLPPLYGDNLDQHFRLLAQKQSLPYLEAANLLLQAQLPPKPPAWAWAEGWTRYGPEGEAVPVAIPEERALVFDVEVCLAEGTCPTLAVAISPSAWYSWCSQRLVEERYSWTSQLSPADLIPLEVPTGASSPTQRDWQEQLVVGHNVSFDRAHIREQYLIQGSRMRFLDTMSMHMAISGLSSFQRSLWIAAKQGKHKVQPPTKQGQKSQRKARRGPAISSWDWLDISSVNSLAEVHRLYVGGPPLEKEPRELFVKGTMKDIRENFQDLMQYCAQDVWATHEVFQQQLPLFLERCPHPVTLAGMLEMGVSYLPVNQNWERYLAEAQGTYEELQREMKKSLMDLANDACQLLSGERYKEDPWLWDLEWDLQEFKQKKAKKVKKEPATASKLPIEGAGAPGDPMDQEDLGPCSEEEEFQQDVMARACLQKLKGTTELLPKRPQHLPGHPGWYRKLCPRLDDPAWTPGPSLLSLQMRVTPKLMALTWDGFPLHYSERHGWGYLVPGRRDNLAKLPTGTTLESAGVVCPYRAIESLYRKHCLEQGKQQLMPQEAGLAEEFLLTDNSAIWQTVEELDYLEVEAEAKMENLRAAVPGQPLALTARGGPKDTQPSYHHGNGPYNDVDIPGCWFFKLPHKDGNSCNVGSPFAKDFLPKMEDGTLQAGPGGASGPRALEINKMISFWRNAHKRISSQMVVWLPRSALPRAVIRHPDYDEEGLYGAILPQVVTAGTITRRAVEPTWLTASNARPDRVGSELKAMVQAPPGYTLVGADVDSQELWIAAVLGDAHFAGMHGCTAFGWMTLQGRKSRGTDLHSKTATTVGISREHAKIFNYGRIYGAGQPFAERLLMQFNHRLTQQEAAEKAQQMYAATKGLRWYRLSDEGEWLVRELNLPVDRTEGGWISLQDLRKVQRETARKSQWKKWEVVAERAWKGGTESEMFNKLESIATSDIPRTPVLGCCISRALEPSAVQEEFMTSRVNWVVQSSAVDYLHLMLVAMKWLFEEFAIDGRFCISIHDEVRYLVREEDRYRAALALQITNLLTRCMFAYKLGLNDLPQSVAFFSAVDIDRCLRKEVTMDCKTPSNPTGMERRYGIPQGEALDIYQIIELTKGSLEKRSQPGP

No constants are given. Whether binding was seen depends on the method and setting. In cells and extracts the contact can be indirect. Some results given as binding are weak or reduced against the parent protein; the word gives no strength.

The target in this test is PARP1 (human (endogenous in HUVECs)) (UniProt P09874). Briefly: co-IP; whole-cell extract incubated with PARP1 antibody (1:50) or POLG antibody (1:50) at 4 °C overnight, Protein A/G magnetic beads 3 h, PBS washes, eluted by boiling, western blot. On the technique in general: In western blotting, separated proteins are transferred to a membrane and probed.

As for POLG (from UniProt P54098 1-1239), the binding entry is recorded as “binds”.
